# Experimental data from PubChem BioAssay AID2685 (National Center for Advancing Translational Sciences (NCATS), 2010).
# The list shows a part of the results. The main result of the screen is listed elsewhere. These columns were measured beside it and carry no call. The list favours compounds with an active or inconclusive main result. Words in brackets tell the shape of the fitted curve; partial curves, single points and poor fits give uncertain potencies.
# Experiment: qHTS Assay for Lipid Storage Modulators in Drosophila S3 Cells;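 for cell number change: cells counted by Cell Tracker Red CMTPX staining in the red channel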
# Conditions: BODIPY lipid droplet fluorescence, 18-24 h; for cell number change: measured here: cell count max response, cells fed with added oleic acid
# Summary of the method: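 Drosophila S3 cells loaded with oleic acid (400 uM, as added) and compounds at several concentrations; lipid droplets imaged by 488-nm laser-scanning cytometry, 500–530 nm intensity and object ratio to cell channel. Percent activity normalized to 20 uM Triacsin C.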
# [1] = measured here: cell number channel AC50, cells fed with added oleic acid
# [2] = measured here: lipid fluorescence (Fed channel) AC50, cells fed with added oleic acid
Compound,cell number change [%],AC50 [1],AC50 [2]
COC(=O)c1ccc(CSc2n[nH]c(-c3ccccc3)n2)o1,3.5,"0.146 µM [falling, partial curve, poor fit]","0.411 µM [falling, full curve, poor fit]"
CCc1cc(C(=O)Nc2nnc(C3CC3)s2)sc1C,-6.55,–,"20.6 µM [falling, single point]"
CC(C)(c1ccccc1)c1ccc(OCC(O)CN2CCCC2)cc1 (configuration not stated),22.5,–,"0.517 µM [falling, single point]"
Cc1ccc(CN(C(=O)c2ccccc2[N+](=O)[O-])C2CCS(=O)(=O)C2)o1 (configuration not stated),-12.9,"1.84 µM [rising, partial curve, poor fit]","29.1 µM [rising, single point]"
Cc1cc(C)n2cc(COc3ccc4ccccc4c3)nc2n1,5.01,–,"3.26 µM [rising, full curve]"
O=C(Oc1ccc(C(=S)N2CCOCC2)cc1)c1ccc(F)cc1,-22,–,–
COc1cc(OC)cc(C(=O)Nc2ccc(S(=O)(=O)Nc3cc(C)nc(C)n3)cc2)c1,14.2,–,"29.1 µM [falling, partial curve]"
CCN1C(=O)[C@H]2[C@@H](c3ccc(-c4ccc(F)cc4)c(OC)c3)N[C@@](CC(C)C)(C(=O)OC)[C@H]2C1=O,-59.1,"23.1 µM [falling, partial curve]","18.4 µM [falling, single point]"
CC(C)NC(=O)CN(c1cccc(Br)c1)S(C)(=O)=O,-101,"20.6 µM [falling, partial curve, poor fit]","16.4 µM [falling, partial curve]"
Cc1ccc(C)c2[nH]c(=O)c(C(c3nnnn3C(C)(C)C)N3CC=C(c4ccc(F)cc4)CC3)cc12 (configuration not stated),28,–,"20.6 µM [rising, single point]"
OC1(c2ccc(F)cc2)CN(c2ccccc2)C2=[N+]1CCS2 (configuration not stated),-24,–,"29.1 µM [falling, single point]"
Cn1cnc([N+](=O)[O-])c1NC(C)(C)C,–,"0.82 µM [falling, full curve, poor fit]","5.8 µM [rising, full curve, poor fit]"
CCOc1c(Cl)cc(CNCc2ccncc2)cc1OC,16.3,–,–
Cc1nc2nc(C)c(NS(=O)(=O)c3ccc(Cl)cc3)c(=O)n2[nH]1,-19,–,–
CCOc1ccc(S(=O)(=O)N2CCC(C(=O)N3CCCC3)CC2)cc1C,-4.2,–,"29.1 µM [rising, single point]"
CC(=O)Nc1ccc(S(=O)(=O)N2CCN=C2c2ccccc2)cc1,-12.4,–,"1.46 µM [falling, full curve]"
CCCC(=O)c1c(NC(C)C)cc(C)oc1=O,-1.33,–,"29.1 µM [falling, single point]"
COC(=O)/C=C/C(=O)N1CCN(c2cccc(Cl)c2)CC1,-15.1,–,–
CCOC(=O)C1CCN(C(=O)CN2C(=O)c3ccccc3Sc3ncccc32)CC1,2.14,–,–
O=C(Nc1cccnc1)c1cc(S(=O)(=O)N2CCCCC2)c(Cl)cc1Cl,-20,–,"0.206 µM [rising, single point]"
C=C1c2c(Cl)ccc(O)c2C(O)=C2C(=O)[C@]3(O)C(O)=C(C(N)=O)C(=O)[C@@H](N(C)C)[C@@H]3[C@@H](O)C12 (some centres not stated),1.04,–,"0.517 µM [falling, single point]"
Cn1c(SCC(=O)NCc2ccccc2)nnc1C1CC1,-0.408,–,"6.51 µM [falling, single point]"
COc1cccc(CN(C)C(=O)c2cc(S(=O)(=O)N3CCN(c4ccccc4)CC3)ccc2Cl)c1,–,–,"7.31 µM [falling, single point]"
CC(C)Oc1ccc(CC2CC(=O)NC2=O)cc1 (configuration not stated),-12.9,–,"29.1 µM [falling, partial curve]"
c1ccc2c(N3CCCCCC3)nc(-c3ccncc3)nc2c1,-20.9,"1.3 µM [rising, partial curve]","2.06 µM [rising, partial curve]"
CN(C)S(=O)(=O)c1cc(C(=O)NCc2ccccc2)c(Cl)cc1Cl,107,"4.11 µM [falling, single point]","3.26 µM [falling, single point]"
Cc1cc(=O)[nH]c2ccc(S(=O)(=O)Nc3ccccc3)cc12,–,–,"29.1 µM [rising, single point]"
Cc1onc(-c2ccccc2)c1C(=O)OCC(=O)Nc1ccc(Cl)cc1,-8.53,–,"6.51 µM [rising, single point]"
COc1cccc(NC(=O)Cn2c(=O)n(CCC(=O)NCc3ccco3)c(=O)c3ccccc32)c1,-31.1,"29.1 µM [falling, single point]",–

# A second format for some results above:
Compound | cell number change [%] | AC50 [1] | AC50 [2]
CCN1C(=O)[C@H]2[C@@H](c3ccc(-c4ccc(F)cc4)c(OC)c3)N[C@@](CC(C)C)(C(=O)OC)[C@H]2C1=O | -59.1 | 23.1 µM [falling, partial curve] | 18.4 µM [falling, single point]
COc1cccc(NC(=O)Cn2c(=O)n(CCC(=O)NCc3ccco3)c(=O)c3ccccc32)c1 | -31.1 | 29.1 µM [falling, single point] | –
